For this assay, the target named is T1, Scm-like with four malignant brain tumor domains 1 (SFMBT1) (human (in human colorectal cell lines)) (UniProt Q9UHJ3).
T1 sequence: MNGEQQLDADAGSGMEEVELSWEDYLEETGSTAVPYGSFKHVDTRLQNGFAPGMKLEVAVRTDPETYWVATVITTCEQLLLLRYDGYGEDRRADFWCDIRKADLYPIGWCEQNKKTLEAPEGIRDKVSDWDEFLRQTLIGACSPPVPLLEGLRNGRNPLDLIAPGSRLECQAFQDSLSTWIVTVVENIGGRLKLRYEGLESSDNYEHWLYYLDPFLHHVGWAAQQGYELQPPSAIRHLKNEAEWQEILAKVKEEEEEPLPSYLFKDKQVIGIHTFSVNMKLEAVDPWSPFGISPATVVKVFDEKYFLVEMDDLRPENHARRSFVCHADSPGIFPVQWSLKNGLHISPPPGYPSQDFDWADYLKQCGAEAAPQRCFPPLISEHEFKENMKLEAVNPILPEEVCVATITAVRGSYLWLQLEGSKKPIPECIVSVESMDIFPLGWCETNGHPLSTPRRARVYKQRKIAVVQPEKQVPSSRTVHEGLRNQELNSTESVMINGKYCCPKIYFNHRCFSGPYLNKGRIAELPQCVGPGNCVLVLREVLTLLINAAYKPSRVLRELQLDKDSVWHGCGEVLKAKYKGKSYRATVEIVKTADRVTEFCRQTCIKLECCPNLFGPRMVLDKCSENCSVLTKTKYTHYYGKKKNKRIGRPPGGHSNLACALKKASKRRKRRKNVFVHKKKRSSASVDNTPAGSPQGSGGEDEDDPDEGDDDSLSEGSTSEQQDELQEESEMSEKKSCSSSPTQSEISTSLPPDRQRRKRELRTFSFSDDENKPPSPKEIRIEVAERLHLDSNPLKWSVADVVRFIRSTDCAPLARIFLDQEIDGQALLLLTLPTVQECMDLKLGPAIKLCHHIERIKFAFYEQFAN
In words: co-IP; cells lysed in RIPA buffer, incubated with protein A/G agarose and antibody for 4 h at 4 °C; eluted complexes analysed by western blotting; bait and cell line not stated. Background: Immunoblotting shows a protein as a band on a membrane.

Sequences of proteins named here, by UniProt entry; tags and fusion partners are left off.
UniProt Q9NP66: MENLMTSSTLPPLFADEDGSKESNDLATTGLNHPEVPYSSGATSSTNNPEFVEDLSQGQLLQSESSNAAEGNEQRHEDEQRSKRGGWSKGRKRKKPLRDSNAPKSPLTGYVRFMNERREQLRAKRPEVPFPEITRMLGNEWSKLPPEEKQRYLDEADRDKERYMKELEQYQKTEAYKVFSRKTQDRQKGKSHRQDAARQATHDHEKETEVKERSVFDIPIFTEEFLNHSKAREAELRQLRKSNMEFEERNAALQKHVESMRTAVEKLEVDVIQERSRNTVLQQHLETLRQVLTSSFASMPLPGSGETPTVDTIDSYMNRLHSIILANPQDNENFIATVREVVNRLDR

These are yes or no findings as the source states them, for the method shown. Binding seen in cells or lysates may run through a third protein. Some binding calls cover weakened binding; strength is not graded here.

As to “high mobility group domain-containing protein 20 A (HMG20A) (from UniProt Q9NP66 1-347)”, the binding result is “binds”.

The values are drawn from paper PMC9110378.
